Not every detail of the peptide structures is certain; ends, links or a residue may be inferred. Bridge positions count the residues as written; N and C are the ends. Peptide text beside a SMILES is read from it. * marks the point of attachment. Myristoyl = CCCCCCCCCCCCCC(=O)*
Legend:
[1] = tested on: human serum albumin (HSA); experiment: Competitive inhibition of HSA MG-H1 formation; assay type: biochemical; details: FIG. 9; peptides 400 μM, HSA 400 μM, MG 200 μM
Procedure: In short, pure MG-1,1-dimethylacetal was heated in sulphuric acid solution for 1 h and fractionally distilled in a column containing glass helices under reduced pressure. Fractions were analyzed by ^1H and ^13C NMR. […] Two parts urea (8M urea, 0.5 M TrisHCl; pH8.0) were added to the solution and the sample was vortexed. HSA was precipitated by addition of two parts acetonitrile (respective to the final sample/urea mixture) and collected by centrifugation for 10′ at 13000 g. […] The HSA containing pellet was dissolved in 20 mM HCl and the protein content was determined by BCA assay. […] The amount of HSA-MG-H1 adduct was determined by LC-MS. Samples and standard curve were spiked with d3-MG-H1 (Polypeptide Group, San Diego, Calif., USA) and derivatized with Fmoc-Cl. Separation was performed on a C18 column (Hypersil Gold aQ; Thermo Scientific, USA) using a 20 min gradient of 0-100% acetonitrile (0.1% TFA) with the first five minutes diverted to waste. Analysis was carried out on an Exactive Orbitrap MS system (Thermo Scientific, USA). […] The calibration range used for the assay was 0-30 pmol.

MG induced hyperalgesia = experiment: Pain response by hot plate assay; assay type: in vivo, C57BL/6 mice; details: peptide i.p. 0.25 mg/mouse prior to MG i.v.; 3 h after MG injection

## CCCCCCCCCCCCCC(=O)NCCCC[C@@H]1NC(=O)CC[C@@H](C(=O)O)NC(=O)[C@H](CCCNC(=N)N)NC(=O)[C@H](CCCNC(=N)N)NC(=O)[C@H](CCCNC(=N)N)NC(=O)[C@H](CCCNC(=N)N)NC1=O [CycK(Myr)R4E] (K(Myristoyl)RRRRE-OH; lactam N-6)
[1]
  prevention of modification of HSA with MG-H1: significantly prevented
MG induced hyperalgesia
  MG induced hyperalgesia (hot-plate): almost complete normalization of hyperalgesia
